Results deposited as PubChem BioAssay AID686938 (Drosophila RNAi Screening Center, 2013).
The screen tested about 23,000 reagents; below is a random part of those that have a named target and a result. In the full data, 75 (0.33%) were called active. 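Raw plate signals without normalisation; calls rest on plate z-scores that were not deposited; ratio present for only 364 wells.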 Reagents against one gene are numbered here. Not stated in the record: the dose of the treatment.

Test: 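Knock-downs reducing store-operated calcium influx in Drosophila cells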 (primary screen)
Cells: Drosophila S2R+ cells
Knock-down reagent: long dsRNA against Drosophila genes, about 0.25 µg dsRNA per well, roughly 10,000 cells
Duration: 5 days of knock-down before the calcium assay
Challenge: thapsigargin (SERCA pump blocker) to empty calcium stores; entry signal taken 4 min after adding it
Detection: 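Per-well fluo-4 fluorescence in two replicates, unnormalised, measured in resting cells and 4 min after store depletion by the SERCA blocker thapsigargin; ratio of the two present in few wells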
Direction: calcium entry signal: higher = stronger calcium signal after store depletion; resting calcium signal: higher = higher resting calcium signal
Units: calcium entry signal in fluorescence units; resting calcium signal in fluorescence units
Rule for the call: 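Hit if the duplicate-averaged plate z-score for entry over resting signal is under −3; wells with weak total dye signal (Fmax z < −2) or more than 5 off-targets removed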
Meaning of the calls: active = strongly reduced calcium entry; inactive = no strong reduction

CG10418 gave calcium entry signal, replicate 1 = 2.39e7; calcium entry signal, replicate 2 = 3.58e7; resting calcium signal, replicate 1 = 1.34e7; resting calcium signal, replicate 2 = 1.76e7; inactive.
CG15601 showed calcium entry signal, replicate 1 = 2.69e7; calcium entry signal, replicate 2 = 3.45e7; resting calcium signal, replicate 1 = 1.39e7; resting calcium signal, replicate 2 = 1.53e7; inactive.
For Ir48a (Ionotropic receptor 48a), the values are calcium entry signal, replicate 1 = 4.07e7; calcium entry signal, replicate 2 = 5.13e7; resting calcium signal, replicate 1 = 2.17e7; resting calcium signal, replicate 2 = 2.21e7; inactive.
For IKKepsilon (I-kappaB kinase epsilon), the entry reads calcium entry signal, replicate 1 = 4.99e7; calcium entry signal, replicate 2 = 5.59e7; resting calcium signal, replicate 1 = 2.40e7; resting calcium signal, replicate 2 = 2.28e7; inactive.
Nedd8 (Nedd8 ubiquitin like modifier) showed calcium entry signal, replicate 1 = 4.65e7; calcium entry signal, replicate 2 = 3.85e7; resting calcium signal, replicate 1 = 2.64e7; resting calcium signal, replicate 2 = 2.01e7; inactive.
CG17032 gave calcium entry signal, replicate 1 = 5.42e7; calcium entry signal, replicate 2 = 6.45e7; resting calcium signal, replicate 1 = 2.58e7; resting calcium signal, replicate 2 = 2.48e7; inactive.
After knock-down of Vha100-1 (Vacuolar H[+] ATPase 100kD subunit 1), the screen gave calcium entry signal, replicate 1 = 3.07e7; calcium entry signal, replicate 2 = 3.77e7; resting calcium signal, replicate 1 = 1.48e7; resting calcium signal, replicate 2 = 2.09e7; inactive.
Against vers (versatile) #1, the values are calcium entry signal, replicate 1 = 5.06e7; calcium entry signal, replicate 2 = 3.59e7; resting calcium signal, replicate 1 = 3.70e7; resting calcium signal, replicate 2 = 1.87e7; inactive.
vers (versatile) #2 gave calcium entry signal, replicate 1 = 4.15e7; calcium entry signal, replicate 2 = 2.97e7; resting calcium signal, replicate 1 = 2.43e7; resting calcium signal, replicate 2 = 1.40e7; inactive.
Depletion of Pus7 (Pseudouridine synthase 7) resulted in: calcium entry signal, replicate 1 = 2.49e7; calcium entry signal, replicate 2 = 3.49e7; resting calcium signal, replicate 1 = 1.22e7; resting calcium signal, replicate 2 = 1.65e7; inactive.
With knock-down of Pak3 the results were calcium entry signal, replicate 1 = 3.37e7; calcium entry signal, replicate 2 = 3.31e7; resting calcium signal, replicate 1 = 1.68e7; resting calcium signal, replicate 2 = 1.59e7; inactive.
Depletion of Hem (HEM-protein) gave: calcium entry signal, replicate 1 = 2.78e7; calcium entry signal, replicate 2 = 3.61e7; resting calcium signal, replicate 1 = 1.35e7; resting calcium signal, replicate 2 = 2.43e7; inactive.
Silencing of Fancm (Fanconi anemia group M helicase) resulted in: calcium entry signal, replicate 1 = 3.27e7; calcium entry signal, replicate 2 = 2.50e7; resting calcium signal, replicate 1 = 1.56e7; resting calcium signal, replicate 2 = 1.24e7; inactive.
Silencing of HnRNP-K (Heterogeneous nuclear ribonucleoprotein K) #1 resulted in: calcium entry signal, replicate 1 = 4.66e7; calcium entry signal, replicate 2 = 4.24e7; resting calcium signal, replicate 1 = 2.19e7; resting calcium signal, replicate 2 = 2.28e7; inactive.
Silencing of HnRNP-K (Heterogeneous nuclear ribonucleoprotein K) #2 resulted in: calcium entry signal, replicate 1 = 3.45e7; calcium entry signal, replicate 2 = 3.47e7; resting calcium signal, replicate 1 = 1.92e7; resting calcium signal, replicate 2 = 1.58e7; inactive.

Entries listed so far whose gene name starts with I or i:
Ir48a (Ionotropic receptor 48a): calcium entry signal, replicate 1 = 4.07e7; calcium entry signal, replicate 2 = 5.13e7; resting calcium signal, replicate 1 = 2.17e7; resting calcium signal, replicate 2 = 2.21e7; call = inactive
IKKepsilon (I-kappaB kinase epsilon): calcium entry signal, replicate 1 = 4.99e7; calcium entry signal, replicate 2 = 5.59e7; resting calcium signal, replicate 1 = 2.40e7; resting calcium signal, replicate 2 = 2.28e7; call = inactive
